Measurements published in PMC10731774.
These are yes or no findings as the source states them, for the method shown. In cells and extracts the contact can be indirect. Some binding calls cover weakened binding; strength is not graded here.

Chains of the proteins cited; added tags and fusions are not shown.
UniProt Q7Z7A1: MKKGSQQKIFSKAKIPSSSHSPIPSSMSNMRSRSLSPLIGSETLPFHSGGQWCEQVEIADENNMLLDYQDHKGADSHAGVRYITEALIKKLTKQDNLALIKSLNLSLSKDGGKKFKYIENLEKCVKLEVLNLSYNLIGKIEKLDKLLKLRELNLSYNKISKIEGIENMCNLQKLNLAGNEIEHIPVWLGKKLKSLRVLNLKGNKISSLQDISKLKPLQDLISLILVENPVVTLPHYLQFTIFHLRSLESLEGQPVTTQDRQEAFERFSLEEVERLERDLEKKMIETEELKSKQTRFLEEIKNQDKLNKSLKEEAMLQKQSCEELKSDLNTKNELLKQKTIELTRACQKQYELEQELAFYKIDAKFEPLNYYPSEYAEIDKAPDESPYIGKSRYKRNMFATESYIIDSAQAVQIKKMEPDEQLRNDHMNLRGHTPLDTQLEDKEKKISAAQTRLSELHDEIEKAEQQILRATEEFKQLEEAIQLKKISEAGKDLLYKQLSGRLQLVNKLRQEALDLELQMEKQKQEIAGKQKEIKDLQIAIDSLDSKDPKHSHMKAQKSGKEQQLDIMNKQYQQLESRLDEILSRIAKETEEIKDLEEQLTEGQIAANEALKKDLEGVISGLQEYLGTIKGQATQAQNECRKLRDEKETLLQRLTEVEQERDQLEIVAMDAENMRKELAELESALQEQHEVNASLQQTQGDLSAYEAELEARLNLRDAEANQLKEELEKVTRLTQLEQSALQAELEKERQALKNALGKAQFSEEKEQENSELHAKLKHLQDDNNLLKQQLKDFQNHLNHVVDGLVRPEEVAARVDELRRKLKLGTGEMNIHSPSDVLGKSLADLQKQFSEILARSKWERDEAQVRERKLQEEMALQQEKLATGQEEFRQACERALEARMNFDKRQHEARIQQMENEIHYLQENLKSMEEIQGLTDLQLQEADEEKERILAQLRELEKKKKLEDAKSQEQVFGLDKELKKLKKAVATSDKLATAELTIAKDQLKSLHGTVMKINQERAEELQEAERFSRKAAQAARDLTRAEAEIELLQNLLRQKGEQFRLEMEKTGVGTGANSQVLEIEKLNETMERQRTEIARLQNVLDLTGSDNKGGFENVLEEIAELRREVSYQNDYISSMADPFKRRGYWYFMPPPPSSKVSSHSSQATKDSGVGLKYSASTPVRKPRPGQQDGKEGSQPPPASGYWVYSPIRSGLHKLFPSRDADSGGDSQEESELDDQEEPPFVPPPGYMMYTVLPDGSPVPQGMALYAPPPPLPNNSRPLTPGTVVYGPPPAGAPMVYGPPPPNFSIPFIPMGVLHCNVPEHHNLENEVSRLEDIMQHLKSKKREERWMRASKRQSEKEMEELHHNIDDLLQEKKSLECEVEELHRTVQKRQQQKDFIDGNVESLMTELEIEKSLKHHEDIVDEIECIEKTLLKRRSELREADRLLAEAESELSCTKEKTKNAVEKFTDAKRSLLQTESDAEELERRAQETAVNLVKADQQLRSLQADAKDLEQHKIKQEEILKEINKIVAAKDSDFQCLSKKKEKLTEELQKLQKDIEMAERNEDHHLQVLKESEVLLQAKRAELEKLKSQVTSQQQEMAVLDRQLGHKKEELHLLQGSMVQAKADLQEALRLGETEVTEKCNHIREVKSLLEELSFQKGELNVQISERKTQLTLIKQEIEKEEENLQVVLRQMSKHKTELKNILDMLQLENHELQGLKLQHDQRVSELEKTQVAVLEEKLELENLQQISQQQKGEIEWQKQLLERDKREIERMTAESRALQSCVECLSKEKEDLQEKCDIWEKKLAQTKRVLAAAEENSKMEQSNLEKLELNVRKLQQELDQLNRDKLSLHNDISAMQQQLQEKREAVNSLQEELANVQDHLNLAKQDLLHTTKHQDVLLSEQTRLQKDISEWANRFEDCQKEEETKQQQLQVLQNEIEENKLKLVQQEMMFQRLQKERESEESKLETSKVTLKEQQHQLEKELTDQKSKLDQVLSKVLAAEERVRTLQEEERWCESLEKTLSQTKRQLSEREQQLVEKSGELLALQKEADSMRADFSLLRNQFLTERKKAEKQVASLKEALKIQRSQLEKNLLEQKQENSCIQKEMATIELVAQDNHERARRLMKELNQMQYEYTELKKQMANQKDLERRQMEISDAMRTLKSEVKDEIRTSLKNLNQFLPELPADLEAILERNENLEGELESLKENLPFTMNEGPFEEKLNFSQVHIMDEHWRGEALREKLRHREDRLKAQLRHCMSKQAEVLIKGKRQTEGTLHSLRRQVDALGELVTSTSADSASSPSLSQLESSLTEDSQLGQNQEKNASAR
UniProt Q9ULT8: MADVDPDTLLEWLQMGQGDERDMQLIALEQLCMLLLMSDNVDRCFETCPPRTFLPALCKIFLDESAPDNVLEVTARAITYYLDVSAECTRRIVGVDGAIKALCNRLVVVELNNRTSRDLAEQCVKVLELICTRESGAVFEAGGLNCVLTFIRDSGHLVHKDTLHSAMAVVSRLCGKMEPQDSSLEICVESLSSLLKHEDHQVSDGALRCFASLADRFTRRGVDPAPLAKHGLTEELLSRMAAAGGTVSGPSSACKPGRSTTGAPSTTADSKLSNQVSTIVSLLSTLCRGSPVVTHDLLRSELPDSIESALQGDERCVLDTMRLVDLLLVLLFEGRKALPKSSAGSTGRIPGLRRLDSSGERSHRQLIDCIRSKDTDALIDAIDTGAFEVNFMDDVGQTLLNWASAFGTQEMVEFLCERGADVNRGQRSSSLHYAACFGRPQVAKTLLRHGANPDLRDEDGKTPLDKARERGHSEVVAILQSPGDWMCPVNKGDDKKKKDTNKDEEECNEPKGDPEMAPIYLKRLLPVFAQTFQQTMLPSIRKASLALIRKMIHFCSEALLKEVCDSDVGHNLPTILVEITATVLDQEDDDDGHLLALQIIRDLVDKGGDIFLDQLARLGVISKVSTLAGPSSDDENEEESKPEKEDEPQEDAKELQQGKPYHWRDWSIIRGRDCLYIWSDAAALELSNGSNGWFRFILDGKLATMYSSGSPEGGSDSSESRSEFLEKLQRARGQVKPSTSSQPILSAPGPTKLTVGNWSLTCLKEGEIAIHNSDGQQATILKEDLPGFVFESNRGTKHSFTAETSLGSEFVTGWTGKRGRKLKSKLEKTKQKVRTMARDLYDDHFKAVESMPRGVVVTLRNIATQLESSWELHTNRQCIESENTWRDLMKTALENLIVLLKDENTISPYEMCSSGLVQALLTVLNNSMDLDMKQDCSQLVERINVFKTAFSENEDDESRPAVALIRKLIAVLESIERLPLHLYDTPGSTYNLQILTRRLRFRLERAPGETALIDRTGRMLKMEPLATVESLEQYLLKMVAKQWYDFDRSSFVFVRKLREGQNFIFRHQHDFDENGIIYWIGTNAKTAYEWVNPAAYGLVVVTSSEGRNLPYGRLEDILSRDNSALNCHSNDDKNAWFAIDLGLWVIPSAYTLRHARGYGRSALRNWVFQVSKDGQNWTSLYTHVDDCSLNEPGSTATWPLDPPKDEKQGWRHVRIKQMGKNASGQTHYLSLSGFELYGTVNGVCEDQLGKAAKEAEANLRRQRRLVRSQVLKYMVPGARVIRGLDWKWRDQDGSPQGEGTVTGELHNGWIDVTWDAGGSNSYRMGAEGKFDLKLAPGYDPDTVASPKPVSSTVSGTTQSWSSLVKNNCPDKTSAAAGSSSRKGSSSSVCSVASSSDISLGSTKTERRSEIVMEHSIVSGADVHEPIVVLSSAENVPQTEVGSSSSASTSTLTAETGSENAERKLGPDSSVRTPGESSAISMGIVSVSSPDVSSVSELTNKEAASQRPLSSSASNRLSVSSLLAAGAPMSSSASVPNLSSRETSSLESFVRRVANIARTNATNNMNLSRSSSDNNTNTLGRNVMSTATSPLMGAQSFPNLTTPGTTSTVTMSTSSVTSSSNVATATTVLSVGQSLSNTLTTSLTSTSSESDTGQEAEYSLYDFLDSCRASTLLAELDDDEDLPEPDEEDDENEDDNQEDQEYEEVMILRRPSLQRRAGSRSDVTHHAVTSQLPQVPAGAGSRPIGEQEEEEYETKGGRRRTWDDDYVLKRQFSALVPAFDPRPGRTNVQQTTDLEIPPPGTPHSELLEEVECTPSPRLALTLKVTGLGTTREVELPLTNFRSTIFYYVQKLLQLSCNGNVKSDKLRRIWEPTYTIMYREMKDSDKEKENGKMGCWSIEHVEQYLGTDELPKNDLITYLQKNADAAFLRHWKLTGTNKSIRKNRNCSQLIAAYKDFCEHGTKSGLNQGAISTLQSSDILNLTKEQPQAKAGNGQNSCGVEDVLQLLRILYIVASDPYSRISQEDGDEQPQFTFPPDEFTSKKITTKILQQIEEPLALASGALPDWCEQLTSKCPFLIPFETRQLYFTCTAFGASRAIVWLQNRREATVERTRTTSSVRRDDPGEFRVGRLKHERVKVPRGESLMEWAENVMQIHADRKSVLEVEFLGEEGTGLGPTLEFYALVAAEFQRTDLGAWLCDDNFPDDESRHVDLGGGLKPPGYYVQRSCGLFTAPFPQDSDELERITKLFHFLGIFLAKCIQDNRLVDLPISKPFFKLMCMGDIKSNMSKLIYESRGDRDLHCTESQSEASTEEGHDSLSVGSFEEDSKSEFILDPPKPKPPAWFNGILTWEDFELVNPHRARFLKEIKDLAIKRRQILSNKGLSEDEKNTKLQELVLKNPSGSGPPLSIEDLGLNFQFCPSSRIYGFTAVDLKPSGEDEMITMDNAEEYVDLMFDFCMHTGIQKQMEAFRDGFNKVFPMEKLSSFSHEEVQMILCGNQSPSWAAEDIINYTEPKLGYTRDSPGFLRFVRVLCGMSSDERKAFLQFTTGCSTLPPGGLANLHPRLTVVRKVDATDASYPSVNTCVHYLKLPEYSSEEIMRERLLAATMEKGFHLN

Target: centriolin (endogenous, HeLa cells) (human (endogenous in HeLa)) (UniProt Q7Z7A1)
Assay: co-IP; lysates (RIPA buffer) of HeLa cells synchronized in G0, G1, S and M phase; antibodies to centriolin at 4 °C overnight, protein A/G beads 2 h; blot with HectD1 antibodies

**Q.** How did the binding turn out when “HectD1 (endogenous, HeLa cells) (from UniProt Q9ULT8 1-2610)” was run?
**A.** The binding was “binds”.
